This is one part of the list. These are further read-outs of the screen, such as a control signal, another cell line or another target. No call is given for them. The list favours compounds with an active or inconclusive main result. Words in brackets tell the shape of the fitted curve; partial curves, single points and poor fits give uncertain potencies.
Experiment: qHTS Assay for Modulators of Lamin A Splicing
Conditions: HeLa LMNA splicing GFP/RFP minigene ratio, 48 h
Method in brief: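 Read-out is the ratio of GFP to DsRed2 object intensity, acquired by 488 nm laser-scanning cytometry on HeLa lamin A-EGFP minigene reporter cells. Compound incubation 48 hrs at 37 °C in Opti-MEM with 2% FBS; DMSO 0.5% final.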

[1] = measured here: RFP viability control channel
[2] = measured here: GFP splicing reporter channel

| SMILES | AC50 [1] | AC50 [2] |
| --- | --- | --- |
| CCOC(=O)N1CCN(C(=O)c2ccc(OC)c(S(=O)(=O)N3CCOCC3)c2)CC1 | 0.00316 µM [falling, full curve, poor fit] | – |
| Cc1ccc(Sc2cnn(-c3ccccc3)c(=O)c2Cl)cc1 | – | 4.47 µM [falling, single point] |
| CCN(CC)S(=O)(=O)c1cccc(C(=O)OCC(=O)Nc2ccc3c(c2)c2ccccc2n3CC)c1 | 22.4 µM [rising, partial curve] | 12.6 µM [rising, partial curve, poor fit] |
| O=C(Cc1ccccc1)N(Cc1cccnc1)c1nc2c(Cl)cccc2s1 | 20 µM [rising, partial curve, poor fit] | 0.0224 µM [rising, full curve, poor fit] |
| Cc1nc2cc(NC(=O)CSc3nc4c(C)cccc4cc3C#N)ccc2s1 | – | 2.51 µM [rising, partial curve, poor fit] |
| O=C(CCC1CCCC1)N1CCc2c([nH]c3ccccc23)C1c1ccc(F)cc1 (stereo not drawn) | 17.8 µM [rising, partial curve] | – |
| CCOc1ccc2nc(SCc3ccc(OC)cc3)sc2c1 | 25.1 µM [rising, single point] | 14.1 µM [rising, single point] |
| COc1ccc(NC(=O)c2cc3c(=O)n(Cc4cccs4)ccc3nc2C)cc1 | 22.4 µM [rising, partial curve] | – |
| COCCNc1nc(-c2ccc(OC)cc2)c(-c2ccc(OC)cc2)s1 | 28.2 µM [rising, single point] | – |
| Cc1ccc(N2CCN(S(=O)(=O)N3CCCCC3)CC2)cc1Cl | 35.5 µM [rising, single point] | 14.1 µM [rising, single point] |
| Cc1ccc(-n2ncc(C#N)c2/N=C/N2CCCCCC2)cc1 | 14.1 µM [rising, single point] | – |
| Cc1cc(C)n(-c2ccc3cccc(NS(C)(=O)=O)c3n2)n1 | 3.55 µM [rising, partial curve, poor fit] | 2.24 µM [rising, full curve] |
| CNC(=S)N1N=C(c2ccc(Br)cc2)CC1c1ccc(N(C)C)cc1 (stereo not drawn) | 1.78 µM [falling, partial curve] | 1.26 µM [falling, full curve, poor fit] |
| NC(=S)c1ccc[n+]([C@@H]2O[C@@H](COP(=O)([O-])OP(=O)(O)OC[C@H]3O[C@@H](n4cnc5c(N)ncnc54)[C@H](OP(=O)(O)O)[C@H]3O)C(O)C2O)c1 (stereo partly drawn) | 5.62 µM [rising, single point] | – |
| CCOC(=O)c1c(C)oc2nc(C)nc(N3CCN(c4cc(Cl)ccc4C)CC3)c12 | 10 µM [rising, partial curve, poor fit] | 0.355 µM [rising, partial curve, poor fit] |
| CN1N=C(C(=O)N2CCN(c3ccc([N+](=O)[O-])cc3)CC2)CCC1=O | – | 25.1 µM [rising, partial curve, poor fit] |
| CC1(C)CC(=O)/C(=C(/O)Cc2ccccc2)C(=NCCc2ccccc2)C1 | 14.1 µM [rising, single point] | 35.5 µM [rising, single point] |
| CCOC(=O)C1C(=O)OC(C)(C)C1C(C)C(=O)c1ccc(C)cc1 (stereo not drawn) | 0.398 µM [rising, partial curve, poor fit] | 5.62 µM [rising, single point] |
| CCOC(=O)N1CCC(NC(=O)Cn2ncc3c4ccccc4n(C)c3c2=O)CC1 | 35.5 µM [rising, single point] | – |
| CC(=O)Cc1cc(O)c2ccccc2c1OC(=O)c1ccccc1 | 35.5 µM [rising, single point] | – |
| COc1ccccc1CNCCCCCCNCCCCCCCCNCCCCCCNCc1ccccc1OC | 0.000794 µM [falling, full curve, poor fit] | 25.1 µM [rising, single point] |
| Cc1ccc(CNC(=O)CN2C(=O)CSc3c2c(C)nn3-c2ccccc2)cc1 | 31.6 µM [falling, partial curve, poor fit] | 0.794 µM [falling, full curve, poor fit] |
| NNC(=O)C(=O)NCCCN1CCOCC1 | 25.1 µM [falling, partial curve] | 11.2 µM [falling, partial curve] |
| COC(=O)CCCCCCCCCC[N+]1(C)CCCCC1 | 12.6 µM [rising, partial curve, poor fit] | 17.8 µM [rising, partial curve] |
| c1ccc(CNc2ncnc3c2cnn3Cc2ccccc2)cc1 | 7.94 µM [rising, partial curve] | – |
| CCC(=O)N1CCN(c2ccc(Cl)cc2NC(=O)c2ccc3c(c2)OCCO3)CC1 | 11.2 µM [rising, single point] | 8.91 µM [rising, partial curve] |
| N#CC1=C(SCC(=O)NC23CC4CC(CC(C4)C2)C3)NC(=O)C(C#N)C12CCCCC2 (stereo not drawn) | 12.6 µM [rising, partial curve, poor fit] | – |

Complete entries from above. Order of values: AC50 [1] | AC50 [2]
N#CC1=C(SCC(=O)NC23CC4CC(CC(C4)C2)C3)NC(=O)C(C#N)C12CCCCC2 (stereo not drawn) in the list: 12.6 µM [rising, partial curve, poor fit] | –
COC(=O)CCCCCCCCCC[N+]1(C)CCCCC1 in the list: 12.6 µM [rising, partial curve, poor fit] | 17.8 µM [rising, partial curve]
CCOC(=O)N1CCC(NC(=O)Cn2ncc3c4ccccc4n(C)c3c2=O)CC1 in the list: 35.5 µM [rising, single point] | –

Continued.

| SMILES | AC50 [1] | AC50 [2] |
| --- | --- | --- |
| COc1ccc(S(=O)(=O)Nc2cc(Sc3ncn[nH]3)c(O)c3ccccc23)cc1 | 3.98 µM [falling, full curve] | 3.98 µM [falling, full curve] |
| CSc1c(CC(=O)Nc2ccccc2Cl)n(Cc2ccccc2)c2ccccc12 | 20 µM [falling, single point] | – |
| Cc1ccc(C(=O)NC(=S)N2CCN(c3ccccc3F)CC2)cc1 | 31.6 µM [rising, single point] | 35.5 µM [rising, single point] |
| O=C(NCc1ccccc1Br)c1ccc2c(c1)nc1n2CCOC1 | – | 7.94 µM [falling, partial curve, poor fit] |
| Cc1c(C#N)c(N)nc2c3c(sc12)NC(=O)CC3c1ccccc1 (stereo not drawn) | – | 5.62 µM [rising, single point] |
| Cc1cnc(NC(=O)CCCc2nc3ccccc3s2)s1 | 12.6 µM [falling, partial curve] | 35.5 µM [falling, single point] |
| CCC(=O)N1c2ccc(S(=O)(=O)CCC(=O)Nc3nccs3)cc2CC1C (stereo not drawn) | – | 11.2 µM [falling, single point] |
| COc1ccc(NC(=O)CSc2ccc3c(c2)OCCO3)cc1OC | 31.6 µM [rising, single point] | 35.5 µM [rising, single point] |
| c1ccc(Nc2nc(-c3ccncc3)cs2)nc1 | 17.8 µM [rising, single point] | – |
| Cc1cc(NC(=O)CCS(=O)(=O)c2nc(-c3ccccc3)cc(C(F)(F)F)n2)no1 | – | 35.5 µM [falling, single point] |
| Cc1cc(NC(=O)CSc2nnc3c(C)cc4c(C)ccc(C)c4n23)no1 | 35.5 µM [rising, single point] | – |
| CCCCc1nc2c(c3c1C[C@H](C)OC3)CN(S(=O)(=O)c1ccc(NC(C)=O)cc1)CC2 | – | 0.0562 µM [rising, full curve, poor fit] |
| CCc1ccc(/C=C/C(=O)c2ccc(N3CCOCC3)cc2)cc1 | 35.5 µM [rising, single point] | – |
| O=C1C2CCCCN2C(=O)N1CCCCN1CCN(c2ccc([N+](=O)[O-])cc2)CC1 (stereo not drawn) | 12.6 µM [rising, single point] | – |
| Clc1ccccc1Cn1nc(-c2ccccc2)nc1-c1ccccc1 | 17.8 µM [rising, partial curve] | – |
| CC(NC(=O)CCC(=O)N1CCN(S(=O)(=O)c2ccc(Cl)cc2)CC1)c1ccccc1 (stereo not drawn) | 14.1 µM [rising, single point] | 10 µM [rising, partial curve] |
| Cc1ccc2c(c1)nnn2C1CCN(S(=O)(=O)c2ccc(C(=O)NC3CCCC3)cc2)CC1 | 7.08 µM [rising, partial curve] | – |
| O=S(=O)(c1ccc(Br)cc1)N1CCCN(Cc2cccc(F)c2)CC1 | – | 14.1 µM [rising, single point] |
| CCN(c1ccc(OCC(=O)OCC(=O)c2c(N)n(C)c(=O)n(C)c2=O)cc1)S(=O)(=O)c1ccccc1 | 11.2 µM [rising, partial curve, poor fit] | – |
| CCCCSc1nnc(-c2ccc(C)cc2)c2ccccc12 | 14.1 µM [rising, partial curve, poor fit] | – |
| COCCN(Cc1cc2cc3c(cc2nc1Cl)OCO3)C(=O)Nc1ccc(F)cc1 | 10 µM [rising, partial curve] | – |
| COc1ccc(-c2cn3c(n2)sc2cc(C(=O)Nc4cccc(SC)c4)ccc23)cc1 | – | 0.0891 µM [falling, full curve] |
| COc1ccc2c(C=Nc3c(C)n(C)n(-c4ccccc4)c3=O)c(O)n(Cc3ccco3)c(=O)c2c1 | 7.94 µM [rising, partial curve] | – |
| COCCn1c(C)cc(C(=O)COC(=O)c2c(C)nn(Cc3ccccc3)c2C)c1C | 35.5 µM [rising, single point] | – |
| COc1ccc(NC(=O)NCCN2CCN(c3cccc(Cl)c3)CC2)cc1 | 35.5 µM [rising, partial curve] | – |
| O=c1[nH][nH]cc1C=Nc1ccc(Cl)cc1Cl | 0.00282 µM [falling, full curve] | – |
| O=S(=O)(NCCC1=CCCCC1)c1cccc(S(=O)(=O)N2CCOCC2)c1 | 22.4 µM [rising, single point] | – |

Reference: PubChem BioAssay AID1487 (National Center for Advancing Translational Sciences (NCATS), 2009)
